Values from PubChem BioAssay AID1259254 (NCATS, 2017)
Assay: 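Genome-wide screen for genes that prevent DNA re-replication in cancer cells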 (primary screen). Cells: human HCT116 colorectal cancer cells. Knock-down reagent: single siRNA against human genes. Timing: 3 days. Measurement: 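Imaged Hoechst DNA stain sorts each cell into a cycle phase by DNA amount; per plate, G2 fraction set to 0% for non-targeting and 100% for GMNN siRNA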. Reading the numbers: G2 robust z-score and G2 cells, % of GMNN control: higher = more G2 cells, more excess DNA replication; raw share of cells in G2: higher = larger share of cells with G2 DNA content. Call rule: 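An siRNA counts as active if its G2 robust z-score lies at least 5 MADs above the screen median; here such calls match roughly 38% of GMNN control or more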.
In all, the deposit lists about 59,000 reagents; this is a part drawn at random. In the full data, about 1,550 (2.6%) are marked active. 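G2 share is only a proxy for re-replication; each gene was hit by three separate siRNAs, and active genes were retested.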 Raw values are not corrected between plates. Unmarked entries are inactive. Reagents against one gene are numbered here. No sequences are given here. Not given: the amount of reagent.

target	siRNA no.	G2 robust z-score	G2 cells, % of GMNN control	raw share of cells in G2 (%)
ABI3BP	1	1.19	11.3	8.68
ABI3BP	2	0.1	3.67	5.53
ABI3BP	3	-0.191	1.63	3.87
CPSF7	1	1.57	14	11.3
CPSF7	2	-0.7	-1.96	4.06
CPSF7	3	3.75	29.4	14.8
GAB1	1	0.649	7.53	7.97
GAB1	2	-0.268	1.08	5.68
GAB1	3	0.641	7.48	6.32
CD86	1	-0.723	-2.12	3.37
CD86	2	0.96	9.72	8.43
CD86	3	-0.957	-3.76	3.62
OR8B12	1	-0.171	1.76	3.76
OR8B12	2	0.000319	2.97	4.65
OR8B12	3	-0.594	-1.21	2.71
GABPB1	1	-0.368	0.375	3.61
GABPB1	2	0.345	5.39	7.37
GABPB1	3	0.109	3.73	4.46
MATN1	1	-0.0306	2.75	4.55
MATN1	2	-0.107	2.21	5.88
MATN1	3	0.742	8.19	6.08
KIF1C	1	1.24	11.7	7.62
KIF1C	2	-1.49	-7.52	3.51
KIF1C	3	-0.582	-1.13	5.21
COL23A1	1	1.4	12.8	9.52
COL23A1	2	-0.478	-0.398	2.88
COL23A1	3	-0.365	0.401	3.05
ROMO1	1	2.82	22.8	11
ROMO1	2	-0.9	-3.37	2.7
ROMO1	3	0.505	6.52	4.93
ZAN	1	3.67	28.8	17.8
ZAN	2	2.13	17.9	10.4
ZAN	3	-0.976	-3.9	2.81
L1TD1	1	-1.22	-5.64	1.58
L1TD1	2	3.42	27.1	15.7
L1TD1	3	0.0305	3.18	4.24
MCOLN1	1	2.5	20.6	12.8
MCOLN1	2	1.5	13.5	9.36
MCOLN1	3	-0.0425	2.67	5.42

Targets above whose target name starts with R or r:
target	siRNA no.	G2 robust z-score	G2 cells, % of GMNN control	raw share of cells in G2 (%)
ROMO1	1	2.82	22.8	11
ROMO1	2	-0.9	-3.37	2.7
ROMO1	3	0.505	6.52	4.93

Further reagents follow:
target	siRNA no.	G2 robust z-score	G2 cells, % of GMNN control	raw share of cells in G2 (%)
XPNPEP2	1	-0.363	0.411	5.7
XPNPEP2	2	0.479	6.33	7.15
XPNPEP2	3	2.51	20.6	11.6
SPX	1	-0.131	2.05	5.29
SPX	2	1.96	16.7	11.6
SPX	3	-0.0546	2.58	3.08
RND1	1	0.497	6.46	6.11
RND1	2	-0.237	1.3	6.75
RND1	3	-0.932	-3.59	2.99
GABRA5	1	0.202	4.39	6.89
GABRA5	2	-0.773	-2.47	3.95
GABRA5	3	-0.643	-1.56	3.77
TIMM13	1	6.59 (active)	49.3	20.1
TIMM13	2	-0.33	0.646	4.4
TIMM13	3	1.53	13.7	12.4
VIP	1	1.29	12.1	8.45
VIP	2	-1.13	-4.97	2.41
VIP	3	1.12	10.8	10.2
KCNH6	1	1.13	10.9	9.26
KCNH6	2	3.33	26.4	13.7
KCNH6	3	-0.22	1.42	4.93
ZFP36L1	1	6.68 (active)	50	21.7
ZFP36L1	2	0.789	8.52	8.11
ZFP36L1	3	-1.29	-6.12	1.71
GRWD1	1	-0.339	0.58	4.3
GRWD1	2	-0.398	0.164	3.51
GRWD1	3	-0.754	-2.33	1.7
LZTR1	1	-0.421	0.00391	3.53
LZTR1	2	-0.73	-2.17	5.02
LZTR1	3	0.554	6.86	6.21
